Some of these results come from one statement about several compounds together. At least one structure is not confirmed: it was looked up by name or label, or the drawing left a doubt.
System: model RNA 1
Assay: In vitro crosslinking of model RNA 1 duplex, measured by polyacrylamide electrophoresis
Format: biochemical
Conditions: 100 mM activated dicarboxylic acid, 10 μM model RNA 1, MOPS pH 7.5, 4 h at room temperature, PAGE
Procedure: All experiments were performed in triplicate.
Source data are provided as a Source Data file.

Compound	crosslinking efficiency of RNA 1
O=C(c1cccc(C(=O)n2ccnc2)n1)n1ccnc1 [DPI, dipicolinic acid imidazolide]	97-99%
O=C(c1ccc(C(=O)n2ccnc2)cc1)n1ccnc1 [Activated terephthalic acid]	97-99%
O=C(C(=O)n1ccnc1)n1ccnc1 [Activated oxalic acid, 1,1′-Oxalyldiimidazole]	1-24%
O=C(c1ccc(C(=O)n2ccnc2)nc1)n1ccnc1 [Activated isocinchomeronic acid]	97-99%

From patent US20240166683A1, “CHEMICAL TOOLS FOR RNA 3D STRUCTURE DETERMINATION IN VIVO” (UNIVERSITY OF SOUTHERN CALIFORNIA, priority 2022, published 2024)
